Paper PMC10340588
These are yes or no findings as the source states them, for the method shown. In cells and extracts the contact can be indirect. Some entries that bind do so weakly or less than the wild type.

What was measured:
[1] = biological target: p100AmotL2 (endogenous in MDCK cells) (dog (endogenous in MDCK)); assay: co-IP; MDCK p60AmotL2 cells with Dox (p60AmotL2 induced); p100AmotL2 precipitated with p100-specific antibody and protein G Sepharose, overnight at 4 °C; lysis buffer 50 mM Hepes, 150 mM NaCl, 1.5 mM MgCl2, 1 mM EGTA, 10% glycerol, 1% TritonX-100; Western blot
[2] = biological target: p100AmotL2 (endogenous in MDCK cells) (dog (endogenous in MDCK)); assay: co-IP; MDCK p60AmotL2 cells without Dox (p60AmotL2 not induced); p100AmotL2 precipitated with p100-specific antibody and protein G Sepharose, overnight at 4 °C; lysis buffer 50 mM Hepes, 150 mM NaCl, 1.5 mM MgCl2, 1 mM EGTA, 10% glycerol, 1% TritonX-100; Western blot

B1: β-catenin (endogenous in MDCK cells) (protein, UniProt B6V8E6 1-781)
chain: MATQADLMELDMAMEPDRKAAVSHWQQQSYLDSGIHSGATTTAPSLSGKGNPEEEDVDTTQVLYEWEQGFSQSFTQEQVADIDGQYAMTRAQRVRAAMFPETLDEGMQIPSTQFDAAHPTNVQRLAEPSQMLKHAVVNLINYQDDAELATRAIPELTKLLNDEDQVVVNKAAVMVHQLSKKEASRHAIMRSPQMVSAIVRTMQNTNDVETARCTAGTLHNLSHHREGLLAIFKSGGIPALVKMLGSPVDSVLFYAITTLHNLLLHQEGAKMAVRLAGGLQKMVALLNKTNVKFLAITTDCLQILAYGNQESKLIILASGGPQALVNIMRTYTYEKLLWTTSRVLKVLSVCSSNKPAIVEAGGMQALGLHLTDPSQRLVQNCLWTLRNLSDAATKQEGMEGLLGTLVQLLGSDDINVVTCAAGILSNLTCNNYKNKMMVCQVGGIEALVRTVLRAGDREDITEPAICALRHLTSRHQEAEMAQNAVRLHYGLPVVVKLLHPPSHWPLIKATVGLIRNLALCPANHAPLREQGAIPRLVQLLVRAHQDTQRRTSMGGTQQQFVEGVRMEEIVEGCTGALHILARDVHNRIVIRGLNTIPLFVQLLYSPIENIQRVAAGVLCELAQDKEAAEAIEAEGATAPLTELLHSRNEGVATYAAAVLFRMSEDKPQDYKKRLSVELTSSLFRTEPMAWNETADLGLDIGAQGEPLGYRQDDPSYRSFHSGGYGQDALGMDPMMEHEMGGHHPGADYPVDGLPDLGHAQDLMDGLPPGDSNQLAWFDTDL
**Q.** How did the binding [1] turn out when B1 was run?
**A.** no binding (condition: with p60AmotL2 induced (Dox))

**Q.** And the binding [2]?
**A.** binds
